Laboratory results taken from article doi:10.1101/212704 (bioRxiv, 2017).
Where two headings read alike, the source gives them in different places. Results are given in words; binding and its absence hold for the method and conditions named. For some of these results: In cells and extracts the contact can be indirect. Some entries that bind do so weakly or less than the wild type. For some of these results: Where a sequence is shown, tags or fusion partners need not be part of it.

The chains behind the UniProt entries cited, without tags or fusion partners. Where a name states a change or a piece, a line headed by the entry shows the natural chain unless it says otherwise. A line that says so, or that is headed by a name, gives the form on record, which may keep a tag or linker. Residues count along the entry.
UniProt O60566, residues 1-371: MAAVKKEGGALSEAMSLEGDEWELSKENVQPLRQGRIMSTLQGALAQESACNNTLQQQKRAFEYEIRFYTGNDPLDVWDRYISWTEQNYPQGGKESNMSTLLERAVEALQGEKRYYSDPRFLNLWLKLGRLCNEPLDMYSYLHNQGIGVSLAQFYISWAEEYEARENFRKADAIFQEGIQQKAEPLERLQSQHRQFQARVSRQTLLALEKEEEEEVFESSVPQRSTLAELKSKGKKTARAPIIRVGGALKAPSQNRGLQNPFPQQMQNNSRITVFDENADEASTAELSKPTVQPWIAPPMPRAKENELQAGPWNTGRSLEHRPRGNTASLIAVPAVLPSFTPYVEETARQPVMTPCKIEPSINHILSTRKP
untagged MAD2^L13A (Q13257, form named): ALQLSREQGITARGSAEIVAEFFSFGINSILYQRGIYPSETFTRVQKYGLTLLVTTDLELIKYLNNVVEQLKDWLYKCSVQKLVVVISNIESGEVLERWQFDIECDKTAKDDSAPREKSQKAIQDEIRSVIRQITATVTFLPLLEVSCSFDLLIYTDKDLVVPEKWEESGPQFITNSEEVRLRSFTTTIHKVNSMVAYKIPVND

T1: GST-MAD1-NTD (human, UniProt Q9Y6D9 1-485)
T1 sequence (looked up): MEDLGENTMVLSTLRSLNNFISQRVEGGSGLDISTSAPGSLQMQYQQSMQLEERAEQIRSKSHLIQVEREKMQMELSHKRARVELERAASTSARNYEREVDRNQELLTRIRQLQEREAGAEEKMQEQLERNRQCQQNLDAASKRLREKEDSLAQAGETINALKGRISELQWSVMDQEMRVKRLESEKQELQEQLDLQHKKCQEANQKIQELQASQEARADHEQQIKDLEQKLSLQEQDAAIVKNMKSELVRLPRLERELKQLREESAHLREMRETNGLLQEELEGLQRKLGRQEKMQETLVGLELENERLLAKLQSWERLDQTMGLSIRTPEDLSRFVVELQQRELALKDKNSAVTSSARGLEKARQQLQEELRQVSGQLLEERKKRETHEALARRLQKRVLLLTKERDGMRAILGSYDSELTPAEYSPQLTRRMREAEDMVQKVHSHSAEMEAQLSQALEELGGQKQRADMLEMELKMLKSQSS

T2: GST-MAD1-CTD^4A (human) (UniProt Q9Y6D9)
T2 sequence: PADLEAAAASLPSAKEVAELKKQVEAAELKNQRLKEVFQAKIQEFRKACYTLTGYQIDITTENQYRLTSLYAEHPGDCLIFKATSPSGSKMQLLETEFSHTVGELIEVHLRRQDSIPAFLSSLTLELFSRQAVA

T3: GST-MAD1-CTD (human) (UniProt Q9Y6D9)
T3 sequence: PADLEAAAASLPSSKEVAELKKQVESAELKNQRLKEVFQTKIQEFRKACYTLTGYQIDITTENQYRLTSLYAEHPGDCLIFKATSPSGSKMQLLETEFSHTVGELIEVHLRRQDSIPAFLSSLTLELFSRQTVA


What was measured:
Test in all cases: pull-down
[1] = molecular target: GST-BUBR1^(1-371) (UniProt O60566)
[2] = molecular target: T1, GST-MAD1-NTD
[3] = molecular target: T2, GST-MAD1-CTD^4A (human)
[4] = molecular target: T3, GST-MAD1-CTD (human)

Row | Molecule | binding [1] | binding [2] | binding ([2]; record 2) | binding [3] | binding [4]
1 | His-tagged MAD1-CTD (domain or fragment, UniProt Q9Y6D9 585-718) PADLEAAAASLPSSKEVAELKKQVESAELKNQRLKEVFQTKIQEFRKACYTLTGYQIDITTENQYRLTSLYAEHPGDCLIFKATSPSGSKMQLLETEFSHTVGELIEVHLRRQDSIPAFLSSLTLELFSRQTVA |  | binds | binds | binds | binds
2 | His-tagged MAD1-CTD^4A (domain or fragment, UniProt Q9Y6D9 585-718) PADLEAAAASLPSAKEVAELKKQVEAAELKNQRLKEVFQAKIQEFRKACYTLTGYQIDITTENQYRLTSLYAEHPGDCLIFKATSPSGSKMQLLETEFSHTVGELIEVHLRRQDSIPAFLSSLTLELFSRQAVA |  |  |  | binds | 

Other lines, results leading:

Row | binding [1] | binding [2] | binding ([2]; record 2) | binding [3] | binding [4] | Molecule
3 | binds |  |  |  |  | untagged MAD2^L13A (from UniProt Q13257 2-205)
4 |  | no binding |  |  |  | GST-MAD1-MIM (domain or fragment, human, UniProt Q9Y6D9 485-584, looked up) SSAEQSFLFSREEADTLRLKVEELEGERSRLEEEKRMLEAQLERRALQGDYDQSRTKVLHMSLNPTSVARQRLREDHSQLQAECERLRGLLRAMERGGTV
